In this assay the target is SidBait-p38β (UniProt Q15759). The experiment in a line: proximity labelling; only the target purified.

Amino acid sequences for entries named in this document (tags omitted).
UniProt Q15759: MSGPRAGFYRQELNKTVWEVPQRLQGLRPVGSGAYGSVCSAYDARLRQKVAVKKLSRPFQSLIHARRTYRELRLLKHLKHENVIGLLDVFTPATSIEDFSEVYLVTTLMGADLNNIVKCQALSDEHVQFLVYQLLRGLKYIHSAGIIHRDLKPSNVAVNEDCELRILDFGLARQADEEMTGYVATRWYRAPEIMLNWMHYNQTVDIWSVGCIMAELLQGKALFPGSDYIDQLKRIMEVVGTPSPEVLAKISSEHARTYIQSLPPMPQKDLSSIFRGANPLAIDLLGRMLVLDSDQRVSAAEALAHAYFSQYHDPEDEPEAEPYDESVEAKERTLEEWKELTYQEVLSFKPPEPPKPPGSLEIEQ

No constants are given. Whether binding was seen depends on the method and setting. Binding seen in cells or lysates may run through a third protein. These calls come from enrichment with a bait or labelling near it, and not all partners need be listed.

B1: MAP2K4 (protein, UniProt P45985 1-399)
chain: MAAPSPSGGGGSGGGSGSGTPGPVGSPAPGHPAVSSMQGKRKALKLNFANPPFKSTARFTLNPNPTGVQNPHIERLRTHSIESSGKLKISPEQHWDFTAEDLKDLGEIGRGAYGSVNKMVHKPSGQIMAVKRIRSTVDEKEQKQLLMDLDVVMRSSDCPYIVQFYGALFREGDCWICMELMSTSFDKFYKYVYSVLDDVIPEEILGKITLATVKALNHLKENLKIIHRDIKPSNILLDRSGNIKLCDFGISGQLVDSIAKTRDAGCRPYMAPERIDPSASRQGYDVRSDVWSLGITLYELATGRFPYPKWNSVFDQLTQVVKGDPPQLSNSEEREFSPSFINFVNLCLTKDESKRPKYKELLKHPFILMYEERAVEVACYVCKILDQMPATPSSPMYVD
On to B1, for which the binding entry is recorded as “binds”.

The values are drawn from article doi:10.1101/2025.03.20.644192.
